Data on 15 compounds can be found in the supplement of paper PMC4604168 (melanoma cell lines).

Each structure is given as a SMILES string. Some of the results follow. Single values are uncertain, as repeats are few or missing.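 Cells were imaged in 1,536-well plates, and nuclei stained with an antibody against cleaved PARP were counted against all DNA-stained nuclei to give the apoptosis fraction. Screening doses were chosen to leave most cells alive, and resting and induced cleaved-PARP levels differ strongly between cell lines.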

The test system of the experiment is COLO800. Kind of experiment: cleaved PARP positive nuclei fraction relative to DMSO control; melanoma cells; higher = more apoptosis. As to conditions: library dose: low library concentration; 72 h.
Regarding `CN(C)S(=O)(=O)c1ccc2c(c1)/C(=C/c1cc3c([nH]1)CCCC3)C(=O)N2` + COc1cc2ncnc(Nc3ccc(Oc4ccccc4)cc3)c2cc1OC [SrcI1] (first compound 0.4 µM, partner dose 2 µM), the “cleaved PARP positive nuclei fraction” value was determined as 130%.

Regarding `NCC(=O)Nc1ccc(-n2nc(C(F)(F)F)cc2-c2ccc3c(ccc4ccccc43)c2)cc1` + Cn1cc(/C=C2\C(=O)Nc3cccnc32)c2ccccc21 [GW441756] (first compound 1 µM, partner dose 0.4 µM), the “cleaved PARP positive nuclei fraction” value came to 243%.

For the compound `O=C(Nc1ccccc1)c1cc([N+](=O)[O-])ccc1Cl` + Oc1cc(-c2nc(-c3ccccc3)[nH]c2-c2ccncc2)ccc1Cl [L779450] (first compound 2 µM, partner dose 0.2 µM), the “cleaved PARP positive nuclei fraction” value was determined as 119%.

For `O=C1NC(=O)/C(=C/c2ccc(-c3ccc(F)cc3O)o2)S1` + c1cc(-c2cnn3cc(-c4ccc(OCCN5CCCCC5)cc4)cnc23)ccn1 [Dorsomorphin] (first compound 1 µM, partner dose 0.4 µM), the “cleaved PARP positive nuclei fraction” value amounted to 64.9%.

For `COC(=O)c1sccc1S(=O)(=O)Nc1ccc(Nc2ccccc2)cc1OC` + COc1ccc(COc2ccc(Cc3cnc(N)nc3N)cc2OC)cc1 [GW2580] (first compound 1 µM, partner dose 1 µM), the “cleaved PARP positive nuclei fraction” value came to 189%.

As for `COc1cc2c(Oc3ccc4[nH]c(C)cc4c3F)ncnc2cc1OCCCN1CCCC1` [cediranib] + CCN(CC)CCCCNc1ncc2cc(-c3cc(OC)cc(OC)c3)c(NC(=O)NC(C)(C)C)nc2n1 [PD173074] (first compound 0.4 µM, partner dose 0.1 µM), the “cleaved PARP positive nuclei fraction” value is 171%.

Take `O=C1NC(=O)/C(=C/c2ccc(-c3ccc(F)cc3O)o2)S1` + COc1cc(N2CCC(N3CCN(C)CC3)CC2)ccc1Nc1ncc(Cl)c(Nc2ccccc2S(=O)(=O)C(C)C)n1 [NVP-TAE684] (first compound 1 µM, partner dose 0.08 µM): the “cleaved PARP positive nuclei fraction” value was determined as 121%.

With `O=C(O)c1ccc(-c2c[nH]c3ncc(-c4ccccc4)cc23)cc1C1CCCC1` + O=C(O)C(=O)Nc1sc2c(c1C(=O)O)CCNC2 [TCS401] (first compound 0.16 µM, partner dose 1.66667 µM), the “cleaved PARP positive nuclei fraction” value stood at 71.3%.

`CN(NC(=O)CC(=O)NN(C)C(=S)c1ccccc1)C(=S)c1ccccc1` + CCN(CC)CCCCNc1ncc2cc(-c3cc(OC)cc(OC)c3)c(NC(=O)NC(C)(C)C)nc2n1 [PD173074] (first compound 0.006 µM, partner dose 0.1 µM): the “cleaved PARP positive nuclei fraction” value came to 374%.

Regarding `NCC(=O)Nc1ccc(-n2nc(C(F)(F)F)cc2-c2ccc3c(ccc4ccccc43)c2)cc1` + Cc1cc([N+](=O)[O-])ccc1NS(=O)(=O)c1cc(Cl)ccc1Cl [FH535] (first compound 1 µM, partner dose 1 µM), the “cleaved PARP positive nuclei fraction” value was 86.5%.

With `COc1ccc(COc2ccc(Cc3cnc(N)nc3N)cc2OC)cc1` + O=S(=O)(c1ccccc1)N(CC(F)(F)F)c1ccc(C(O)(C(F)(F)F)C(F)(F)F)cc1 [T0901317] (first compound 1 µM, partner dose 1.4 µM), the “cleaved PARP positive nuclei fraction” value was found to be 90.7%.

`O=C(Nc1ccccc1)c1cc([N+](=O)[O-])ccc1Cl` + COc1ccc(COc2ccc(Cc3cnc(N)nc3N)cc2OC)cc1 [GW2580] (first compound 2 µM, partner dose 1 µM): the “cleaved PARP positive nuclei fraction” value is 65%.

Take `NCC(=O)Nc1ccc(-n2nc(C(F)(F)F)cc2-c2ccc3c(ccc4ccccc43)c2)cc1` + COc1ccc(-c2ccc3c(N4CCOCC4)nc(N4C[C@@H](C)O[C@@H](C)C4)nc3n2)cc1CO [KU0063794] (first compound 1 µM, partner dose 0.02 µM): the “cleaved PARP positive nuclei fraction” value stood at 59.5%.

Consider `COc1cc2c(Oc3ccc4[nH]c(C)cc4c3F)ncnc2cc1OCCCN1CCCC1` [cediranib] + COc1ccc(-c2ccc3c(N4CCOCC4)nc(N4C[C@@H](C)O[C@@H](C)C4)nc3n2)cc1CO [KU0063794] (first compound 0.4 µM, partner dose 0.02 µM), for which the “cleaved PARP positive nuclei fraction” value was found to be 109%.

For the compound `O=S(=O)(c1ccccc1)N(CC(F)(F)F)c1ccc(C(O)(C(F)(F)F)C(F)(F)F)cc1` + CC(C)CCN1c2nc(Nc3cc(F)c(O)c(F)c3)ncc2N(C)C(=O)C1C [BID1870] (first compound 1.4 µM, partner dose 0.2 µM), the “cleaved PARP positive nuclei fraction” value turned out to be 142%.
